According to patent US20220064301A1:
These are yes or no findings as the source states them, for the method shown. Some results given as binding are weak or reduced against the parent protein; the word gives no strength.

Assays:
[1] = biological target: cynoCTLA4-Fc (cynomolgus) (UniProt G7PL88); experiment: SPR (FIG. 2E)
[2] = biological target: cynoCTLA4-Fc (cynomolgus) (UniProt G7PL88); experiment: SPR (FIG. 2E, 2F)
[3] = biological target: cynoCTLA4-Fc (cynomolgus) (UniProt G7PL88); experiment: SPR (Biacore), cynoCTLA4-Fc, series 2-32 nM

Measured: binding

B1: Antibody 2-Fab (a Fab of Antibody 2) (Fab, V domains shown)
VH: QVQLVQSGAEVKKPGSSVKVSCKASGYTFTNYFMNWVRQAPGQGLEWMGRVDPEQGRADYAEKFKKRVTITADKSTSTAYMELSSLRSEDTAVYYCARRAMDNYGFAYWGQGTLVTVSS
VL: EIVLTQSPDFQSVTPKEKVTITCSANSALSYMYWYQQKPDQSPKLWVHGTSNLASGVPSRFSGSGSGTDFTLTINSLEAEDAATYYCHHWSNTQWTFGGGTKVEIKR
binds: [1] | [2] | [3]
